Patent US20210163606A1
Results are given in words; binding and its absence hold for the method and conditions named. Some results given as binding are weak or reduced against the parent protein; the word gives no strength.

Key:
mouse NRP2 (mouse) [1] = biological target: T1, mouse NRP2 (mouse) (UniProt O35375); assay: told in a figure legend; no binding assay described
T1 sequence (looked up): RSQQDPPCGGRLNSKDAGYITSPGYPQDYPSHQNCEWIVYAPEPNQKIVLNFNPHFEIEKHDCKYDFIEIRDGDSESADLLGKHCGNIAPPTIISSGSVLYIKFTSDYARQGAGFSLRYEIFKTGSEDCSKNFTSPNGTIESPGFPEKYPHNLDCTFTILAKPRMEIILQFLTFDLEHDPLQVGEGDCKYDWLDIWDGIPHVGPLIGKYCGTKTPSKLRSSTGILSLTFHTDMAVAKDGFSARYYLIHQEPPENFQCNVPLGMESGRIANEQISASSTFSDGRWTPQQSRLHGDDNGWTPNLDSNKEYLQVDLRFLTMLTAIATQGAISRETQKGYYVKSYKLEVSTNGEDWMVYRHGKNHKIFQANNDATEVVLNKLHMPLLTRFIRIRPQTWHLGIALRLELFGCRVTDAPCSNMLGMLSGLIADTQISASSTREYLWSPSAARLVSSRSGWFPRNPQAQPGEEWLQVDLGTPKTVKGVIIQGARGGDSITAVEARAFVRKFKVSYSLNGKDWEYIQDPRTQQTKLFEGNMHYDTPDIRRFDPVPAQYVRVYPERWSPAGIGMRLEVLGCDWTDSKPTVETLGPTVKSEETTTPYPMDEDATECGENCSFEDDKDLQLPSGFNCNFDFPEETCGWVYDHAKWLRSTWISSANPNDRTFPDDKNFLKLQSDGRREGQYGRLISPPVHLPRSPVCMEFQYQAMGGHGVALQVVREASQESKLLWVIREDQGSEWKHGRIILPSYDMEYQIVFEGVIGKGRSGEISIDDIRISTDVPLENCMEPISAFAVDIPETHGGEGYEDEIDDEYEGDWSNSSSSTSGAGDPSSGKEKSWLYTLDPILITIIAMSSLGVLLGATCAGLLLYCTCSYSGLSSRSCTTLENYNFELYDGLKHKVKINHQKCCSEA

mouse NRP2 (mouse) [2] = biological target: T1, mouse NRP2 (mouse); assay: told in the example; no binding assay described

B1: aNRP2-28v2/4 (antibody, V domains shown)
VH: QSVKESEGGLFKPTDTLTLTCTVSGFSLSTYSISWVRQAPGNGLEWIGIIGDAGGIIYATWAKSRSTITRSTALNTVTLKMTGLTAADTATYFCARDGTAFDIWGPGTLVTVSS
VL: AYDMTQTPASVEVVVGGTVTIKCQASQSIYSKLGWYQQKPGQPPKLLIYRASTLASGVSSRFKGSGSGTEYTLTISGVQCDDAATYYCQQDYSYINVDNIFGGGTEVVVK
binding (mouse NRP2 (mouse) [1]): binds | binding (mouse NRP2 (mouse) [2]): binds
